Data as given in PubChem BioAssay AID652272 (Drosophila RNAi Screening Center, 2013).
The deposit covers about 21,000 reagents; shown is a random part of those that have a named target and a result. Of all reagents, 503 (2.4%) got an active call. 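Raw plate light values, not normalised; calls rest on replicate z-scores that were not deposited; hits include reporter decreases as well as increases.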 A plus sign joins genes that one reagent is predicted to hit. The record does not give: the amount of reagent, the time to read-out.

- Purpose: 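Genes whose knock-down decreases or increases Hedgehog reporter output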 (primary screen)
- System: Drosophila clone 8 (Cl8) cells
- Knock-down reagent: long dsRNA against Drosophila genes
- Read-out: 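Firefly light from a Hedgehog-responsive ptc promoter reporter and Renilla reference light, both read on a plate reader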
- Reading the numbers: firefly Hh reporter signal: higher = more ptc reporter light; Renilla reference signal: higher = more Renilla control light
- Hit rule: 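Hit when the z-score averaged over two replicates is under -2 or over +3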
- Meaning of the calls: active = hit: reporter lowered or raised; inactive = not a hit

no.	target	dsRNA	firefly Hh reporter signal, replicate 1	firefly Hh reporter signal, replicate 2	firefly Hh reporter signal, replicate 3	Renilla reference signal, replicate 1	Renilla reference signal, replicate 2	activity call
1	Galphao (GeneID 36104)	DRSC07430	91097	81107		4194	3523	inactive
2	CG6028 (GeneID 42589)	DRSC15951	1.06e5	62011		4593	2698	inactive
3	l(1)sc (GeneID 30983)	DRSC18789	70553	1.92e5		1717	7717	inactive
4	PolE2 (GeneID 38661)	DRSC09737	66707	52680		4116	2635	inactive
5	CG11638 (GeneID 31050)	DRSC18167	78155	1.94e5		1712	7893	inactive
6	CG11638 (GeneID 31050)	DRSC18640	69033	1.97e5		1818	7564	inactive
7	Taf1 (GeneID 40813)	DRSC12607	53751	51786		2028	1600	inactive
8	Or67a (GeneID 39109)	DRSC11240	29308	42556	72512	4506	5354	inactive
9	Ugt37A3 (GeneID 41574)	DRSC15937	1.34e5	1.07e5		5700	2794	inactive
10	unc-119 (GeneID 31664)	DRSC18846	87074	2.02e5		2893	7360	inactive
11	CG14120 (GeneID 39463)	DRSC10124	27579	35126	54740	4208	3651	inactive
12	jvl (GeneID 41788)	DRSC13053	55761	1.17e5		10621	2272	inactive
13	jvl (GeneID 41788)	DRSC15495	1.33e5	1.28e5		5536	4723	inactive
14	BtbVII (GeneID 38376)	DRSC08151	52376	20739		1271	106	inactive
15	BtbVII (GeneID 38376)	DRSC08415	1.42e5	1.14e5		5067	4528	inactive
16	kdn (GeneID 31579)	DRSC18328	57752	2.33e5		1084	8951	inactive
17	Alp12 (GeneID 35218)	DRSC02515	1.67e5	64578		4069	6187	inactive
18	dpr14 (GeneID 31702)	DRSC17767	96809	97355		2209	2432	inactive
19	nesd (GeneID 35298)	DRSC02099	95505	71712		3131	2505	inactive
20	CG42355 (GeneID 317969)	DRSC07967	66288	1.24e5		2640	7366	active

Next part; the last 8 above are carried over.
no.	target	dsRNA	firefly Hh reporter signal, replicate 1	firefly Hh reporter signal, replicate 2	firefly Hh reporter signal, replicate 3	Renilla reference signal, replicate 1	Renilla reference signal, replicate 2	activity call
13	jvl (GeneID 41788)	DRSC15495	1.33e5	1.28e5		5536	4723	inactive
14	BtbVII (GeneID 38376)	DRSC08151	52376	20739		1271	106	inactive
15	BtbVII (GeneID 38376)	DRSC08415	1.42e5	1.14e5		5067	4528	inactive
16	kdn (GeneID 31579)	DRSC18328	57752	2.33e5		1084	8951	inactive
17	Alp12 (GeneID 35218)	DRSC02515	1.67e5	64578		4069	6187	inactive
18	dpr14 (GeneID 31702)	DRSC17767	96809	97355		2209	2432	inactive
19	nesd (GeneID 35298)	DRSC02099	95505	71712		3131	2505	inactive
20	CG42355 (GeneID 317969)	DRSC07967	66288	1.24e5		2640	7366	active
21	CG11892 (GeneID 43053)	DRSC14428	61600	1.55e5		1008	3522	inactive
22	Ugt35C1 (GeneID 53507)	DRSC16080	89610	1.23e5		2535	3545	inactive
23	Cph (GeneID 31660)	DRSC17507	5.11e5	1.96e5		29954	4512	inactive
24	Cph (GeneID 31660)	DRSC18434	51792	2.39e5		2019	10023	inactive
25	fusl (GeneID 33765)	DRSC02351	58677	75603		2470	3211	inactive
26	CG2246 (GeneID 43637)	DRSC15433	2.02e5	1.58e5		4642	3749	inactive
27	CG42855 (GeneID 10178866)	DRSC06161	1.08e5	68665		2965	5173	inactive
28	Trm1 (GeneID 34656)	DRSC02951	89319	55655		4848	2400	inactive
29	Rcd-1 (GeneID 32966)	DRSC19569	88858	2.27e5		2667	8972	inactive
30	CG30414 (GeneID 37705)	DRSC04372	98665	54634		3047	5176	inactive
31	Hrb98DE (GeneID 43385)	DRSC16709	1.27e5	71812		3037	2123	inactive
32	TyrRS (GeneID 39829)	DRSC10430	1.02e5	57632		3992	2549	inactive
33	CG1077 (GeneID 40751)	DRSC12146	89040	1.98e5		3012	5434	inactive
34	CG3356 (GeneID 37876)	DRSC04358	98852	61831		4325	2752	inactive
35	Gyc76C + CG42637	DRSC11180	76224	45623		3089	2034	inactive
36	spt4 (GeneID 36387)	DRSC07696	1.30e5	85209		5148	3152	inactive
37	ubl (GeneID 35592)	DRSC04998	89692	32403		2240	2330	inactive
38	heca (GeneID 43604)	DRSC16964	52404	56218		1703	1818	inactive
39	Rab21 (GeneID 3355163)	DRSC20968	1.73e5	2.01e5		6645	10614	inactive
40	CG33110 (GeneID 42659)	DRSC14694	2.03e5	27029		15889	1360	active
41	CG33110 (GeneID 42659)	DRSC16137	6.11e5	1.12e5		32192	3222	inactive
42	Moca-cyp (GeneID 43374)	DRSC15364	1.10e5	1.34e5		1405	4049	inactive
43	CG15725 (GeneID 32224)	DRSC19691	84805	2.72e5		3153	10605	inactive
44	CG13631 (GeneID 50073)	DRSC14632	1.59e5	1.06e5		6982	4570	inactive
45	CG30116 (GeneID 37126)	DRSC05935	1.04e5	70421		4387	2933	inactive
46	CG30116 (GeneID 37126)	DRSC06685	1.20e5	61633		3302	4579	inactive
47	CG17219 (GeneID 33515)	DRSC00486	1.01e5	76036		1602	5368	inactive
48	MFS16 (GeneID 37427)	DRSC04051	74922	45744		2112	4935	inactive
49	CG14797 + CG32809	DRSC18562	60626	2.11e5		1957	7904	inactive
50	Pink1 (GeneID 31607)	DRSC18361	93656	59737		2500	1529	inactive
51	CG15368 (GeneID 31861)	DRSC18040	48864	1.04e5		1589	4592	inactive
52	mRpS16 (GeneID 36570)	DRSC07152	97339	44167		2384	2226	inactive
53	rogdi (GeneID 39917)	DRSC10906	59264	75865		2525	2742	inactive
54	CG18507 (GeneID 34775)	DRSC01334	5.58e5	2.70e5		25427	9773	inactive
55	CG18507 (GeneID 34775)	DRSC01914	1.34e5	69607		3405	6208	inactive
56	CG12985 (GeneID 32774)	DRSC19505	79290	1.78e5		2480	7107	inactive
57	CG13896 (GeneID 38089)	DRSC08366	68520	51412		2781	3729	inactive
